Test results: US20210137890A1, “DEUTERATED IMIDAZOLIDINEDIONE COMPOUNDS AND THEIR USES” (priority 2018, published 2021)

System: LNCaP
Test: LNCaP growth inhibition
Type: cell-based
Conditions: Homo sapiens

CNC(=O)c1ccc(N2C(=S)N(c3ccc(C#N)c(C(F)(F)F)c3)C(=O)C2(C)C)cc1F [enzalutamide]
IC50: 0.12 nM
